Laboratory results from patent US12296348B2, “Electrostatic precipitator” (TECHNISCHE UNIVERSITÄT DORTMUND, priority 2019, dated 2025).

Settings: 1 g particle-loaden xylitol or same amount of commercial naproxen; USP <1092> conditions; UV/Vis at 230 nm; FIG. 6

time until the entire dose is released (dissolution): 300 s
Compound: COc1ccc2cc([C@H](C)C(=O)O)ccc2c1 [unprocessed naproxen, naproxen]
